From article PMC4973735

Test system: BjMYB1 (R2R3-MYB) (Brassica juncea)
Assay: EMSA
Conditions: 1x binding buffer (Pierce), 5 mM MgCl2, 50 ng/ul poly(dI-dC), 0.05% NP-40, 2.5% glycerol, 40 fmol biotin DNA, 15 fmol His-BjMYB1 in 20 ul, room temperature 30 min, recombinant protein, protein details: His (pET-28a)

Sequence	binding result	binding result (almost no binding affinity)
ACCACCCTTTATACCCACCTACCAGACACCAACGCTCCAG (double strand) [PAL2Pro]	no binding	
GCCCAGCTAGTGAGTAGTCATGAGGTAGAGAGAGGG (double strand) [W4-d1]	no binding	
GCCCAGCTAGTGAGTATTGACCCATGAGGTAGAGAGAGGG (double strand) [W4-d2 (W-box)]	binds	
GCCCAGCTAGTGAGTAACCTACCACATGAGGTAGAGAGAGGG (double strand) [W4-d3 (AC element)]		binds more weakly
GCCCAGCTAGTGAGTAGTGACTCATGAGGTAGAGAGAGGG (double strand) [W4 (Wbl-4)]	binds	

The exact form of at least one protein or probe is not confirmed. Negatives hold for the conditions tested. Weaker means in comparison with the reference protein, sequence or condition of that experiment.
